Results are given in words; binding and its absence hold for the method and conditions named. Binding seen in cells or lysates may run through a third protein. Some results given as binding are weak or reduced against the parent protein; the word gives no strength.
Biological target: heterogeneous nuclear ribonucleoprotein K (hnRNPK) (human) (UniProt P61978)
Experiment: co-IP; IP with antibodies against hnRNPK or IgG, IP lysis buffer with protease and phosphatase inhibitors, protein A/G magnetic beads; Western blot for β-catenin and hnRNPK; cells with overexpressed or knocked-down lncRNA LYPLAL1-DT and controls

With β-catenin (from UniProt P35222 1-781) the binding was “binds”.

— publication PMC10726293
